Source: the supplement of paper PMC12819154, “High-throughput peptide-centric local stability assay extends protein–ligand identification to membrane proteins, tissues and bacteria” (Nature Structural & Molecular Biology, 2025)
The list shows a part of the results. Most values lie at the level of the controls, where differences are scatter.

Protein sequences, listed by entry. Tags and fused reporters are not part of them. Lines headed by an entry give the natural chain unless they say otherwise; changes in a name come on top.
UniProt P76231: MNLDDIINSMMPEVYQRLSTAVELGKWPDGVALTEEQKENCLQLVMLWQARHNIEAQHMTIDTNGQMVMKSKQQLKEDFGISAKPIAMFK
UniProt P76268: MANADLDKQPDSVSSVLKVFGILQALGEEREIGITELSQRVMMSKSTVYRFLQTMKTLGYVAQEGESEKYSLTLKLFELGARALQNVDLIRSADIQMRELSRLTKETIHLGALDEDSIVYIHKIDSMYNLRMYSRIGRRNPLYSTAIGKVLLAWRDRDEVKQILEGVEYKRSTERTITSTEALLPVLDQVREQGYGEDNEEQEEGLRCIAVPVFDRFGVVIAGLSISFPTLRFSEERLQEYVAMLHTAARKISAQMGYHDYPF
UniProt P77280: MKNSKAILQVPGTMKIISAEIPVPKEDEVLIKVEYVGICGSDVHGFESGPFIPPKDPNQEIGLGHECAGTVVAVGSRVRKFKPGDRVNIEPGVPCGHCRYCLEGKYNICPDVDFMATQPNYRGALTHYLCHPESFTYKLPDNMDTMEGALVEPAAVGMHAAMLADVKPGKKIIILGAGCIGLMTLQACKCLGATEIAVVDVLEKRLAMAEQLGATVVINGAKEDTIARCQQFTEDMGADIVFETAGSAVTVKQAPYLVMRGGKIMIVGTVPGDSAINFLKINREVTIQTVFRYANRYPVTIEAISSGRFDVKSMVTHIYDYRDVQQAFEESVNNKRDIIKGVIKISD
UniProt P76559: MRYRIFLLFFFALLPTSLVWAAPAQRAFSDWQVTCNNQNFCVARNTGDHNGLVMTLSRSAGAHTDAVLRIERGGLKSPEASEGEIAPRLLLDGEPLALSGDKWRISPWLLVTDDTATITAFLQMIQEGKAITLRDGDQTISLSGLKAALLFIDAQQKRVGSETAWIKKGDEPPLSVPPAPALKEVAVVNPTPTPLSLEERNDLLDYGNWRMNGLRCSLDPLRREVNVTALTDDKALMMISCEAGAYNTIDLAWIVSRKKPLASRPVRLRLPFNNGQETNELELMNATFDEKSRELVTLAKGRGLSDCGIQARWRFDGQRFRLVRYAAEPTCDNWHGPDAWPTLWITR
UniProt P77364: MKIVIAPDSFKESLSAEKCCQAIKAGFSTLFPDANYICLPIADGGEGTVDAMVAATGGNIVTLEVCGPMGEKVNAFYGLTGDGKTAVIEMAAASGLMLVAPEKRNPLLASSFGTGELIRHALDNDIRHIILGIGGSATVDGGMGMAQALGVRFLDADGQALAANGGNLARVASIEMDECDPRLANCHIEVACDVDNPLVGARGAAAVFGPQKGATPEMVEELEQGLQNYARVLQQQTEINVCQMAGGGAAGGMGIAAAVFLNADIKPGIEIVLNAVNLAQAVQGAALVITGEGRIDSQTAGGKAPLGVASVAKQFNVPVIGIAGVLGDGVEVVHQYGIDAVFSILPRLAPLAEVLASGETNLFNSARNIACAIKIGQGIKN
UniProt P76549: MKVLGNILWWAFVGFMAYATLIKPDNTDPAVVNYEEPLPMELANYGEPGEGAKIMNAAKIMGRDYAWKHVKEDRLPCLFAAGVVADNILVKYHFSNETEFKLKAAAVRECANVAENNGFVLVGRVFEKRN
UniProt P77307: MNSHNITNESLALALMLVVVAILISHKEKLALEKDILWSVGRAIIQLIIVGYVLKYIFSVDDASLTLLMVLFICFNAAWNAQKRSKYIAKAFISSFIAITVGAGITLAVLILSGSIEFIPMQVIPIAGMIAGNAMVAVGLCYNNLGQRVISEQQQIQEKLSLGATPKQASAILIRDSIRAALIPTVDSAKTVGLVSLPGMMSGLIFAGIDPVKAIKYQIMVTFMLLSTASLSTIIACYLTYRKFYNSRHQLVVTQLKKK
UniProt P77616: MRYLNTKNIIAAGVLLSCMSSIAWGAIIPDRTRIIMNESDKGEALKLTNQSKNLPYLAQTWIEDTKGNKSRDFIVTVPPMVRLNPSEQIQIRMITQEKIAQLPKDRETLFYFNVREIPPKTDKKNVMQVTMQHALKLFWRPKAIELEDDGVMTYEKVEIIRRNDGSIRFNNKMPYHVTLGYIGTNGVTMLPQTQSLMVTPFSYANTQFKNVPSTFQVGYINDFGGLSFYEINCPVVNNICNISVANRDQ
UniProt P76043: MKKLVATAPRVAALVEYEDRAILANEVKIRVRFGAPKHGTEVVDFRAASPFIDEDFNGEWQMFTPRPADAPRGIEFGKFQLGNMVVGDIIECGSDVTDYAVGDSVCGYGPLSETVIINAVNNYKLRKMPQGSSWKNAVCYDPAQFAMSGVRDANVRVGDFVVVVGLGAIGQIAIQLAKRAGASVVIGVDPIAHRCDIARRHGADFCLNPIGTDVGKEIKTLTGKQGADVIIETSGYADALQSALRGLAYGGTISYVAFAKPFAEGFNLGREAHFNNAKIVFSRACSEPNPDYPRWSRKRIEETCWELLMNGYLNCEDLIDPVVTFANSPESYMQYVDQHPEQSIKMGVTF
UniProt P76273: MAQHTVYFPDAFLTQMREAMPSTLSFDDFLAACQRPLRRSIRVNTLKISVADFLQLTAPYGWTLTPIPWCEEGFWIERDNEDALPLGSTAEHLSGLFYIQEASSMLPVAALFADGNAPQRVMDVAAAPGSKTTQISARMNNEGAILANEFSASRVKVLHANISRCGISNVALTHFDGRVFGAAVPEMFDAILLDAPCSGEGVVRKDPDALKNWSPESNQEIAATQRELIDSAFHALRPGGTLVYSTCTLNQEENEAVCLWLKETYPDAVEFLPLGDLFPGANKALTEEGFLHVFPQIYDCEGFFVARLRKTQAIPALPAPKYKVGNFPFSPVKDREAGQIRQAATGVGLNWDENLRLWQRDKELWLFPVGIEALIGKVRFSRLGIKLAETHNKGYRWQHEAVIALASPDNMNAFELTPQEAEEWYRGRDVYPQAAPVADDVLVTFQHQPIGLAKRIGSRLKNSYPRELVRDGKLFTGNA
UniProt P76223: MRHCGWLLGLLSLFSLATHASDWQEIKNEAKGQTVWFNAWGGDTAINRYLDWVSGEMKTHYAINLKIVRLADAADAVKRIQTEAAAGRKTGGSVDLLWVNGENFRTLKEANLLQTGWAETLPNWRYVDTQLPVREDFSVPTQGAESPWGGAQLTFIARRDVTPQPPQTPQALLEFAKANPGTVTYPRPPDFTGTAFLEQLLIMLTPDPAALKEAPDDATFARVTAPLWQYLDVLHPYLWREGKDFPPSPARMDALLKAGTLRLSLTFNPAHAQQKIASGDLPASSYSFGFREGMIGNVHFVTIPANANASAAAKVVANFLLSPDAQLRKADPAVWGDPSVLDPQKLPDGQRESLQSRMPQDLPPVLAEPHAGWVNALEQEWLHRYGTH
UniProt P77376: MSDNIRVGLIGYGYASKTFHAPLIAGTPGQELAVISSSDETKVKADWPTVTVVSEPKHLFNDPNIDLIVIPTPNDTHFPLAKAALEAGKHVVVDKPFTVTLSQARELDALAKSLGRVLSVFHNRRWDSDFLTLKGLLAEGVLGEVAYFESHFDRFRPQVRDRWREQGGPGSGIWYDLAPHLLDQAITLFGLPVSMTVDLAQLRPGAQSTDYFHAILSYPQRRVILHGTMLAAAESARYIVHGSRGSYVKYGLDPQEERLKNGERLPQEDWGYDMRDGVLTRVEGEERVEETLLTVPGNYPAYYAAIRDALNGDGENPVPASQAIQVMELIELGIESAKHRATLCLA
UniProt P76010: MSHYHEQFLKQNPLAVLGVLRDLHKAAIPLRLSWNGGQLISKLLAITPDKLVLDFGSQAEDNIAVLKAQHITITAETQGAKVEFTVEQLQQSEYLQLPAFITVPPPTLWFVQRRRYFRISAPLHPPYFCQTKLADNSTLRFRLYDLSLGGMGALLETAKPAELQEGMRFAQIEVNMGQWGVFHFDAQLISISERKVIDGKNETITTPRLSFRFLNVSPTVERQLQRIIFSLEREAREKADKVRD
UniProt P77212: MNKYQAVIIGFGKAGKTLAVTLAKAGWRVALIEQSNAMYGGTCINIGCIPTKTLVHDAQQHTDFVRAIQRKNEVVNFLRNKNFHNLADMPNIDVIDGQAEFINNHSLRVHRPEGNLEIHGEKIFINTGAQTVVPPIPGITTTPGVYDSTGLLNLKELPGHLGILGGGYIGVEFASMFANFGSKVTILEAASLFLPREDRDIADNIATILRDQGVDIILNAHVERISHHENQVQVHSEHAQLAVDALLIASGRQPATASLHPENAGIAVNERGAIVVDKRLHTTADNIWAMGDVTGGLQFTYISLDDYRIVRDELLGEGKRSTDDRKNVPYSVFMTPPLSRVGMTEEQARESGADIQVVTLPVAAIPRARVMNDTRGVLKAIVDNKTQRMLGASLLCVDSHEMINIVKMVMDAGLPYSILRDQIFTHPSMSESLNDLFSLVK
UniProt P76161: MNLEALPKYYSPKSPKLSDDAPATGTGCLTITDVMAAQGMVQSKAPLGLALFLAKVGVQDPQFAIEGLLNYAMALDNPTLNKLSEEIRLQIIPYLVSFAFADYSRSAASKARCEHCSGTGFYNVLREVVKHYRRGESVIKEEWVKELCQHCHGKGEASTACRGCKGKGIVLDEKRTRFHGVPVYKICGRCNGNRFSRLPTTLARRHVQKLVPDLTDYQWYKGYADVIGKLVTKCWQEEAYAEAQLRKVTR
UniProt P76035: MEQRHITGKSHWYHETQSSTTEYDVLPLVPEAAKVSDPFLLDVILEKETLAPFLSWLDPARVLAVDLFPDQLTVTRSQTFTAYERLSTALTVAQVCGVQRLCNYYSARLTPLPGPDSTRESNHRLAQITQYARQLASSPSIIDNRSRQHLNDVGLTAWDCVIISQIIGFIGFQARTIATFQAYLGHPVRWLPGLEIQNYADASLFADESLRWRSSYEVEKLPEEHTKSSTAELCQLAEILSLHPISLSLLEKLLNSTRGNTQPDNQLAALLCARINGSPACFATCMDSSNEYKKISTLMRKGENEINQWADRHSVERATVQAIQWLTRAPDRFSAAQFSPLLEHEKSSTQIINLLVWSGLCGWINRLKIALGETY
UniProt P77265: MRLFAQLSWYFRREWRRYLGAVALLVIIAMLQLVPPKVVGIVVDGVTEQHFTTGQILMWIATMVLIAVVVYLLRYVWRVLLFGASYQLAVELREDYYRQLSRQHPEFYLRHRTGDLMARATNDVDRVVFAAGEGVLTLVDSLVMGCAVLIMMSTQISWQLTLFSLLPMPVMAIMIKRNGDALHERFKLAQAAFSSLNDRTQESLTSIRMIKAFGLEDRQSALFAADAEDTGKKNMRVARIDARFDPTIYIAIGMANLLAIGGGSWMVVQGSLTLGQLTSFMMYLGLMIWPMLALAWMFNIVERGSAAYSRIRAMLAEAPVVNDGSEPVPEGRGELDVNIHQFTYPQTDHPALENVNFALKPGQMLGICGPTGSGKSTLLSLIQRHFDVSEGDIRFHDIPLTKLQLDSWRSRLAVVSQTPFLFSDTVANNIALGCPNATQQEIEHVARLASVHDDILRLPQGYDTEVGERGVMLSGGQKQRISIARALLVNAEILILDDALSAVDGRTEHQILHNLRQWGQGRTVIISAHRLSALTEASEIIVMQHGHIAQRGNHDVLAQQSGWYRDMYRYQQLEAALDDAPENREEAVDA
UniProt P76251: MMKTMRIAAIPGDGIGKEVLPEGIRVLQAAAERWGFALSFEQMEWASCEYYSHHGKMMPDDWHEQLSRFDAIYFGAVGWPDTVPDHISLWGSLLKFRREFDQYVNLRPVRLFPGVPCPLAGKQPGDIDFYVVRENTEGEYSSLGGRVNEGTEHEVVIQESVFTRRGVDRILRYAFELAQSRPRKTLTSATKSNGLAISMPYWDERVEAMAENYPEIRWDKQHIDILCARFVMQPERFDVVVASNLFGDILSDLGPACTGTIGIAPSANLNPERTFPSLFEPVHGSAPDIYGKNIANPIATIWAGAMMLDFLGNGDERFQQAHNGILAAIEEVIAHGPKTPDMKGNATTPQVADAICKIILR
UniProt P76361: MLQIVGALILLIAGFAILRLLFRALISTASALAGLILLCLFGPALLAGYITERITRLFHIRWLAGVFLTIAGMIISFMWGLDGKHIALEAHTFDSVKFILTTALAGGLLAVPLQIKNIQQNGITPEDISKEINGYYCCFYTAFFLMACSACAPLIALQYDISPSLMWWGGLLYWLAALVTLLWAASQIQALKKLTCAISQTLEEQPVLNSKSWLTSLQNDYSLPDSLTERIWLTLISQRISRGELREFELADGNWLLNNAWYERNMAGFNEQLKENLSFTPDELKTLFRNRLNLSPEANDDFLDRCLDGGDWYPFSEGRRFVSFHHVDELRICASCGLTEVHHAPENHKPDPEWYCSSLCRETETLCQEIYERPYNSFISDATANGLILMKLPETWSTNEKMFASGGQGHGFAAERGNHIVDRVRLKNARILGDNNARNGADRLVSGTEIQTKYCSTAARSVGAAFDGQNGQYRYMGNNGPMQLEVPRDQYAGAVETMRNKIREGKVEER

Each target was assayed with CC1(C)S[C@@H]2[C@H](NC(=O)[C@H](N)c3ccccc3)C(=O)N2[C@H]1C(=O)O [ampicillin] (assay: log2 fold change of tryptic peptide abundance, ligand vs vehicle (limited proteolysis) (log2 ratio); higher = more trypsin-susceptible (destabilized)). Details: ligand concentration: 10 uM; sample: E. coli crude lysate.

Target	log2 fold change
UniProt P76231 (peptide sequence: EDFGISAKPIAMFK, peptide start residue: 77)	0.268
UniProt P76268 (peptide sequence: QILEGVEYK, peptide start residue: 162)	0.135
UniProt P77280 (peptide sequence: QAPYLVMR, peptide start residue: 253)	0.322
UniProt P76559 (peptide sequence: VGSETAWIK, peptide start residue: 159)	-0.142
UniProt P77364 (peptide sequence: ESLSAEKCCQAIK, peptide start residue: 12)	-0.438
UniProt P76549 (peptide sequence: YHFSNETEFK, peptide start residue: 92)	0.114
UniProt P77307 (peptide sequence: VISEQQQIQEK, peptide start residue: 149)	0.327
UniProt P77616 (peptide sequence: IIMNESDKGEALK, peptide start residue: 34)	-0.245
UniProt P77247 (peptide sequence: QPWNGPSR, peptide start residue: 65)	0.231
UniProt P77319 (peptide sequence: LAAELAGLNAVR, peptide start residue: 135)	0.457
UniProt P76226 (peptide sequence: PLLHQCVR, peptide start residue: 12)	0.12
UniProt P77541 (peptide sequence: SVIDTMQTR, peptide start residue: 262)	-0.176
UniProt P76043 (peptide sequence: EAHFNNAK, peptide start residue: 271)	-0.303
UniProt P76016 (peptide sequence: VSHTFAHMPQDDPQTR, peptide start residue: 320)	-0.35
UniProt P76373 (peptide sequence: KPQVVGIYR, peptide start residue: 295)	0.934
UniProt P76273 (peptide sequence: VGNFPFSPVKDR, peptide start residue: 324)	-0.0771

Random excerpt: two records from the list, in no set order.
Target	log2 fold change
UniProt P77247 (peptide sequence: QPWNGPSR, peptide start residue: 65)	0.231
UniProt P76231 (peptide sequence: EDFGISAKPIAMFK, peptide start residue: 77)	0.268

(continued)

Target	log2 fold change
UniProt P76403 (peptide sequence: KFYVVVNIAPHNAK, peptide start residue: 61)	0.246
UniProt P76223 (peptide sequence: KADPAVWGDPSVLDPQKLPDGQR, peptide start residue: 329)	0.274
UniProt P77376 (peptide sequence: VILHGTMLAAAESAR, peptide start residue: 223)	0.439
UniProt P76220 (peptide sequence: FGGNLTAAEEK, peptide start residue: 159)	-0.0272
UniProt P76010 (peptide sequence: EAREKADK, peptide start residue: 234)	0.26
UniProt P77212 (peptide sequence: IVRDELLGEGKR, peptide start residue: 309)	-0.704
UniProt P76177 (peptide sequence: VINGVVELPK, peptide start residue: 103)	0.306
UniProt P77610 (peptide sequence: WLNAHEEGYHK, peptide start residue: 18)	-0.0129
UniProt P76161 (peptide sequence: RGESVIKEEWVK, peptide start residue: 134)	0.489
UniProt P76035 (peptide sequence: FSAAQFSPLLEHEK, peptide start residue: 333)	0.502
UniProt P77265 (peptide sequence: QHPEFYLR, peptide start residue: 103)	-0.208
UniProt P76193 (peptide sequence: LVDKALYR, peptide start residue: 287)	-0.199
UniProt P76251 (peptide sequence: EFDQYVNLRPVR, peptide start residue: 99)	-0.105
UniProt P76586 (peptide sequence: YGCLETVASLSALKK, peptide start residue: 255)	0.733
UniProt P76361 (peptide sequence: ILGDNNAR, peptide start residue: 431)	-0.271
